Test results reported in article PMC5947527 (Chemical Science, 2015).

Test: general procedure: Fmoc solid-phase peptide synthesis; aminomethyl polystyrene resin (0.745 mmol/g) with Fmoc-Rink amide linker; 2-chlorotrityl chloride resin; H-Gly-2-chlorot; Oxyma/DIC
Conditions: whole synthesis, 495 nm
For “FAM-Ahx-Thr-Gly-Arg-Ala-Lys-Arg-Arg-Met-Gln-Tyr-Asn-Arg-Arg-NH2”, the “final HPLC purity” value was 98%. In the case of “MeO-PEG- D- Arg- D- Arg- D- Asn- D- Tyr- D- Gln- D- Nle- D- Arg- D- Arg- D- Lys- D- Ala- D- Arg-Gly- D- Thr-Lys(NBD)-OH”, the “final HPLC purity” value is reported as 100%. With “NBD-Ahx-Thr-Gly-Arg-Ala-Lys-Arg-MeArg-Nle-Gln-Tyr-Asn-Arg-Arg-D-Phe-D-Val-NH2” the “final HPLC purity” value was 97%. With “NBD-Ahx-Thr-Gly-Arg-Ala-Lys-MeArg-MeArg-Nle-Gln-Tyr-Asn-MeArg-MeArg-NH2” the “final HPLC purity” value was 97%. With “NBD-Ahx-cyclo[Lys-Thr-Gly-Arg-Ala-Lys-Arg-Arg-Nle-Gln-Tyr-Asn-Arg-MeArg-Gly]” the “final HPLC purity” value was 99%. With “NBD-PEG-D-Thr-Gly-D-Arg-D-Ala-D-Lys-D-Arg-D-Arg-D-Nle-D-Gln-D-Tyr-D-Asn-D-Arg-D-Arg-OH” the “final HPLC purity” value was 100%.
